Experimental data published in paper PMC10891094, “Substrate binding and catalytic mechanism of the Se-glycosyltransferase SenB in the biosynthesis of selenoneine” (Nature Communications, 2024).
Results are given in words; binding and its absence hold for the method and conditions named.

Target: Se-glycosyltransferase SenB from Variovorax paradoxus (Variovorax paradoxus)
Assay: SEC; HiLoad 16/600 Superdex 75; 20 mM Tris-HCl pH 7.5, 150 mM NaCl, 1 mM DTT; both purified

binding: no binding
B1: Se-glycosyltransferase SenB from Variovorax paradoxus (enzyme, UniProt A0ACH4EUC8 1-331)
chain: MSNPSLVIVSPALPGANNGNWRTAQRWKALLSPVCSARVVQQWPDADASADTVMLALHARRSAESIAHWAHAHPGRGLGVVLTGTDLYQDIGSDPQAQRSLQLAQRLVVLQALGAEALPPECRAKARVVYQSTSARAELPKSARQLRAVMVGHLRQVKSPQTLFDAARLLCGREDIRIDHIGDAGDAGLGELARALASDCPGYRWLGALPHAQTRQRIQRAHVLVHTSALEGGAHVIMEAVRSGTPVLASRVPGNVGMLGNDYAGYFPHGDAAALAALLEACRAGQGSKDRAAGLLDSLRTQCALRAPLFDPRAEQAALFQLLNELQPPPP
